# Results are given in words; binding and its absence hold for the method and conditions named. Binding seen in cells or lysates may run through a third protein. Binding can be weak; no strength is given. Where a sequence is shown, tags or fusion partners need not be part of it.
# B1: KlSir2-HA (enzyme, UniProt P33294 1-670)
# chain: MTEYYGTLQKRPLEQESVAEGNGGLESGKKARGDSDVFAARSPENEDVDVDADADVDADADADADAEEDAQKDILEETKADELDEVVDEYEEKEVSSNFNGTASDHVGITSSNTGSTALAASSADTNSGSGNGTGTMATNGTLSDRQYAPQKPEHPIKLERRSVSRKYVFPVISKEDSLNARSYLKQFGSARFLDDYLPEDLNSLYVYHMIKLLGFQIKDKELMLAIQEVVHNADNDDSLPQKNSSETKNVSDTYTATYPSPSFEDPLEKKHAVRLIKDLQKAMNKVLSTRIRLTNFHTIDDFVAKLKTAKKIIVLTGAGISTSLGIPDFRSSEGFYSKLGDLGLNDPQDVFSLEVFTEDPSVFYNIAHMVLPPENMYSPLHSFIKMIQDKDKLLRNYTQNIDNLESYAGVEPEKMVQCHGSFATASCVTCHWKIQGERIFPNIRNLQLPICPYCYSKRLEFFKTKTDEELADGEDDDMDDHHGRSVPKSFGVLKPDITFFGEALPSKFHRLIREDVLQCDLLICIGTSLKVAPVSEIVNMIPAHVPQVLINKDPVKHAEFDLSLLGLCDDVAALVAQKCGWDIPHDNWNKLKNKVFDSEEVERGVYKVHPLNESPAELEAEEEKHLPLQQSTAALTPPVSLSADSPGRSSSSSPQPPTQTDIANNQTST
# Molecular target: KlSir4-Flag (Kluyveromyces lactis)
# Assay: co-IP; whole-cell lysate of K. lactis with KlSIR2-HA, KlSIR4-Flag and myc-KlSUM1 alleles (wild-type LRY2285; also sum1Δ LRY2158 and sir4Δ LRY2282); anti-HA, anti-Flag or anti-myc overnight at 4°C, Protein A agarose; immunoblot for the tags
binder,measurement,value
B1,binding,binds

# — article PMC2762165
